Test results: US9486471B2, “Combination therapy for the treatment of cancer” (McMaster University, priority 2012, dated 2016)
At least one structure is not confirmed: it was looked up by name or label, or the drawing left a doubt.

Experiments:
[1] = tested on: AML cell lines HL-60, OCI-AML2 and OCI-AML3; conditions: 72 h, relative to control
Procedure: All three lines are leukemic cell lines. HL-60 was derived from promyelocytic AML whereas MV 4-11 and OCI-AML3 are representative of AML. Each compound was incubated with the cells for 72 h. The control was DMSO (ie the vehicle used for the compound) for 72 h. Each condition had three replicates.
A series of dopamine receptor agonists, D3-antagonists, DR1 & 5-antagonists and multi-receptor antagonists were tested for cytotoxicity against three AML cell lines HL-60, OCI-AML2 and OCI-AML3. Testing was performed as set out in Example 1.

[2] = tested on: AML-OCI2 and AML-OCI3 cell lines; experiment: Volumetric cell counting of AML cell lines treated with DR antagonists and agonists; assay type: cell-based, human; conditions: 72 h, serum-free conditions

With `CN1CCN(C2=Nc3cc(Cl)ccc3Nc3ccccc32)CC1` [clozapine, Clozapine] the cell count [1] was “eradicate the AML cell lines” and the “number of AML cells” value [2] was “reduced the number of AML cells”.
